Reference: US7288256B1, “T cell epitopes of the major allergens from dermatophagoides (house dust mite)” (Merck Patent GmbH, priority 1991, dated 2007)
At least one peptide structure holds a part that was inferred or is arguable (an end, a ring closure or a residue). Some compounds share one wording; it may come from a single statement. Some results were stated once for a whole list of compounds, not compound by compound. Residues, ends and D or L forms follow the SMILES beside them.

Columns and labels:
Type in all cases: cell-based, human
[1] = system: PBMC from mite-allergic patient; assay: Primary PBMC proliferation (3H-thymidine) to Der p I/Der p II proteins and peptides, Example IV; conditions: for CPM ± S.D.: 7 days culture; for S.I.: CPM with antigen / CPM medium only
Method: Peripheral blood mononuclear cells (PBMC) were purified by Ficoll-Hypaque centrifugation of a peripheral blood specimen from mite-allergic patient and were assayed for proliferation in response to various antigens, i.e., affinity-purified Der p I, affinity purified […], various Der p I and Der p II peptides. For assay, 5×10^4 PBMC were cultured in triplicate microwells for 7 days at 37° C. in the presence of various concentrations of antigen in 200 μl RPMI-1640 containing 5% human AB serum. Each well then received 1 μCi tritiated thymidine for 16 hours. The counts incorporated were collected onto glass fiber filters and processed for liquid scintillation counting. […] The CPM+/− standard deviation are shown. The stimulation index of each response (S.I.) is the ratio of the ^3H-thymidine CPM incorporated by the cells in response to antigen divided by the ^3H-thymidine CPM incorporated by cells in medium only. […] Thus, these peptides contain Der p I or Der p II T cell epitopes recognized by T cells from this particular allergic patient.

[2] = system: Der p I primed T cell lines; assay: Secondary T cell proliferation assay, T cell lines primed in vitro with Der p I (Examples V, VII, XI, XII); conditions: for S.I. with which this patient responds: individual 543, primed with 20 μg/ml purified native Der p I, data not shown
[3] = system: T cell lines primed with purified native Der p I; assay: T cell epitope studies with modified peptides, T cell lines primed with Der p I (Example XIV, FIGS. 31a-b); conditions: 18 patients
[4] = system: Secondary T cell cultures reactive with Der p I protein allergen; assay: Percentage of total Group I T cell reactivity and patient coverage of candidate peptides (Example XVII); conditions: patient 1733; highest S.I. >= 2.0 recorded per peptide
[5] = system: Der f I primed T cell lines; assay: Secondary T cell proliferation assay, T cell lines primed in vitro with Der f I (Examples VI, VII, XI); conditions: 8 positive experiments, FIG. 8
[6] = 33 patients primed with Der p I

CC[C@H](C)[C@H](NC(=O)[C@@H](N)CCC(=O)O)C(=O)N[C@@H](CC(=O)O)C(=O)N[C@@H](CC(C)C)C(=O)N[C@@H](CCCNC(=N)N)C(=O)N[C@@H](CCC(N)=O)C(=O)N[C@@H](CCSC)C(=O)N[C@@H](CCCNC(=N)N)C(=O)N[C@H](C(=O)N[C@H](C(=O)N[C@H](C(=O)N1CCC[C@H]1C(=O)N[C@H](C(=O)N[C@@H](CCCNC(=N)N)C(=O)N[C@@H](CCSC)C(=O)N[C@@H](CCC(N)=O)C(=O)NCC(=O)NCC(=O)N[C@@H](CS)C(=O)NCC(=O)N[C@@H](CO)C(=O)N[C@@H](CS)C(=O)N[C@@H](Cc1c[nH]c2ccccc12)C(=O)N[C@@H](C)C(=O)N[C@@H](Cc1ccccc1)C(=O)N[C@@H](CO)C(=O)NCC(=O)O)[C@@H](C)CC)[C@@H](C)O)C(C)C)[C@@H](C)O [DP I-2] (H-EIDLRQMRTVTPIRMQGGCGSCWAFSG-OH; N-terminus and C-terminus assumed)
CPM ± S.D. ([1]; antigen 10 μg/ml): 1395 ± 47 CPM | S.I. ([1]; antigen 10 μg/ml): 1.3 | CPM ± S.D. ([1]; antigen 30 μg/ml): 1283 ± 34 CPM | S.I. ([1]; antigen 30 μg/ml): 1.5 | CPM ± S.D. ([1]; antigen 100 μg/ml): 1486 ± 38 CPM | S.I. ([1]; antigen 100 μg/ml): 1.4 | T cell reactivity of overlapping Der p I peptides in panel of patients ([2]; 33 positive experiments): significant regions of T cell reactivity | S.I. with which this patient responds [2]: at least 2.0 | T cell response to peptide [3]: positive response

CC[C@H](C)[C@H](NC(=O)CNC(=O)[C@@H](NC(=O)[C@@H](NC(=O)[C@@H](NC(=O)[C@H](C)NC(=O)[C@@H](NC(=O)[C@H](C)NC(=O)[C@H](CO)NC(=O)[C@H](Cc1c[nH]cn1)NC(=O)[C@@H](NC(=O)[C@H](CCC(N)=O)NC(=O)[C@H](C)N)[C@@H](C)O)[C@@H](C)CC)C(C)C)[C@@H](C)CC)[C@@H](C)CC)C(=O)N[C@@H](CCCCN)C(=O)N[C@@H](CC(=O)O)C(=O)N[C@@H](CC(C)C)C(=O)N[C@@H](CC(=O)O)C(=O)N[C@@H](C)C(=O)N[C@@H](Cc1ccccc1)C(=O)N[C@@H](CCCNC(=N)N)C(=O)N[C@@H](Cc1c[nH]cn1)C(=O)N[C@@H](Cc1ccc(O)cc1)C(=O)N[C@@H](CC(=O)O)C(=O)NCC(=O)N[C@@H](CCCNC(=N)N)C(=O)N[C@H](C(=O)O)[C@@H](C)O [DP I-7.1] (H-AQTHSAIAVIIGIKDLDAFRHYDGRT-OH; N-terminus and C-terminus assumed)
T cell reactivity of overlapping Der p I peptides in panel of patients ([2]; 33 positive experiments): significant regions of T cell reactivity | STIMULATION INDEX [4]: 2.2

CC[C@H](C)[C@H](NC(=O)[C@H](CC(N)=O)NC(=O)[C@@H](NC(=O)[C@H](C)NC(=O)[C@@H](N)Cc1c[nH]cn1)C(C)C)C(=O)N[C@H](C(=O)NCC(=O)N[C@@H](Cc1ccc(O)cc1)C(=O)N[C@@H](CO)C(=O)N[C@@H](CC(N)=O)C(=O)N[C@@H](C)C(=O)N[C@@H](CCC(N)=O)C(=O)NCC(=O)N[C@H](C(=O)N[C@@H](CC(=O)O)C(=O)N[C@@H](Cc1ccc(O)cc1)C(=O)N[C@@H](Cc1c[nH]c2ccccc12)C(=O)N[C@H](C(=O)N[C@H](C(=O)N[C@@H](CCCNC(=N)N)C(=O)N[C@@H](CC(N)=O)C(=O)N[C@@H](CO)C(=O)O)C(C)C)[C@@H](C)CC)C(C)C)C(C)C [DP I-16] (H-HAVNIVGYSNAQGVDYWIVRNS-OH; N-terminus and C-terminus assumed)
T cell reactivity of overlapping Der p I peptides in panel of patients ([2]; 33 positive experiments): significant regions of T cell reactivity | S.I. with which this patient responds [2]: at least 2.0 | STIMULATION INDEX [4]: 2.0

CC[C@H](C)[C@H](N)C(=O)N[C@H](C(=O)NCC(=O)N[C@H](C(=O)N[C@@H](CCCCN)C(=O)N[C@@H](CC(=O)O)C(=O)N[C@@H](CC(C)C)C(=O)N[C@@H](CC(=O)O)C(=O)N[C@@H](C)C(=O)N[C@@H](Cc1ccccc1)C(=O)N[C@@H](CCCNC(=N)N)C(=O)N[C@@H](Cc1c[nH]cn1)C(=O)N[C@@H](Cc1ccc(O)cc1)C(=O)N[C@@H](CC(=O)O)C(=O)NCC(=O)N[C@@H](CCCNC(=N)N)C(=O)N[C@H](C(=O)N[C@H](C(=O)N[C@H](C(=O)N[C@@H](CCC(N)=O)C(=O)N[C@@H](CCCNC(=N)N)C(=O)N[C@@H](CC(=O)O)C(=O)N[C@@H](CC(N)=O)C(=O)NCC(=O)N[C@@H](Cc1ccc(O)cc1)C(=O)N[C@@H](CCC(N)=O)C(=O)O)[C@@H](C)CC)[C@@H](C)CC)[C@@H](C)O)[C@@H](C)CC)[C@@H](C)CC [DP I-26.1] (H-IIGIKDLDAFRHYDGRTIIQRDNGYQ-OH; N-terminus and C-terminus assumed)
positivity index (mean S.I. x percent of positive responses) [2, 6]: at least 150 | mean T cell stimulation index (mean S.I.) of positive responses ([2]; 33 patients primed with native or recombinant Der p I, only S.I. >= 2 used): at least 4 | response of Der p I primed T cells to selected Der p I peptides ([2]; 33 positive experiments, FIG. 13): respond significantly | T cell response to peptide [3]: positive

CC[C@H](C)[C@H](NC(=O)CNC(=O)[C@H](CCCNC(=N)N)NC(=O)[C@@H]1CCCN1C(=O)[C@@H](NC(=O)[C@@H](NC(=O)[C@H](CC(=O)O)NC(=O)CNC(=O)[C@H](Cc1c[nH]cn1)NC(=O)[C@H](CS)NC(=O)CNC(=O)[C@H](Cc1c[nH]cn1)NC(=O)[C@H](CCC(N)=O)NC(=O)[C@H](CO)NC(=O)[C@H](C)NC(=O)[C@H](CS)NC(=O)[C@H](CC(=O)O)NC(=O)[C@@H](NC(=O)[C@H](CC(C)C)NC(=O)[C@@H](N)CCC(=O)O)C(C)C)[C@@H](C)O)[C@@H](C)CC)C(=O)N[C@@H](CCC(=O)O)C(=O)O [DP I-12.1] (H-ELVDCASQHGCHGDTIPRGIE-OH; N-terminus and C-terminus assumed)
STIMULATION INDEX [4]: 2.2

CC[C@H](C)[C@H](NC(=O)[C@H](Cc1ccc(O)cc1)NC(=O)[C@@H](N)CCC(=O)O)C(=O)N[C@@H](CCC(N)=O)C(=O)N[C@@H](Cc1c[nH]cn1)C(=O)N[C@@H](CC(N)=O)C(=O)NCC(=O)N[C@H](C(=O)N[C@H](C(=O)N[C@@H](CCC(N)=O)C(=O)N[C@@H](CCC(=O)O)C(=O)N[C@@H](CO)C(=O)N[C@@H](Cc1ccc(O)cc1)C(=O)N[C@@H](Cc1ccc(O)cc1)C(=O)N[C@@H](CCCNC(=N)N)C(=O)N[C@@H](Cc1ccc(O)cc1)C(=O)N[C@H](C(=O)N[C@@H](C)C(=O)N[C@@H](CCCNC(=N)N)C(=O)N[C@@H](CCC(=O)O)C(=O)O)C(C)C)C(C)C)C(C)C [DPI-5.1] (H-EYIQHNGVVQESYYRYVARE-OH; N-terminus and C-terminus assumed)
STIMULATION INDEX [4]: 3.5

CC[C@H](C)[C@H](NC(=O)[C@H](CO)NC(=O)[C@H](CS)NC(=O)[C@H](C)NC(=O)[C@H](CC(N)=O)NC(=O)[C@@H](N)[C@@H](C)O)C(=O)N[C@@H](CC(N)=O)C(=O)NCC(=O)N[C@@H](CC(N)=O)C(=O)N[C@@H](C)C(=O)N1CCC[C@H]1C(=O)N[C@@H](C)C(=O)N[C@@H](CCC(=O)O)C(=O)N[C@H](C(=O)N[C@@H](CC(=O)O)C(=O)N[C@@H](CC(C)C)C(=O)N[C@@H](CCCNC(=N)N)C(=O)N[C@@H](CCC(N)=O)C(=O)N[C@@H](CCSC)C(=O)N[C@@H](CCCNC(=N)N)C(=O)O)[C@@H](C)CC [DP I-1] (H-TNACSINGNAPAEIDLRQMR-OH; N-terminus and C-terminus assumed)
CPM ± S.D. ([1]; antigen 10 μg/ml): 1099 ± 48 CPM | S.I. ([1]; antigen 10 μg/ml): 1.0 | CPM ± S.D. ([1]; antigen 30 μg/ml): 3527 ± 73 CPM | S.I. ([1]; antigen 30 μg/ml): 3.3 | CPM ± S.D. ([1]; antigen 100 μg/ml): 2746 ± 81 CPM | S.I. ([1]; antigen 100 μg/ml): 2.6 | S.I. with which this patient responds ([1]; text summary of Table I): at least 2.0 | percent of positive responses (S.I. of at least 2) [2, 6]: 73% | T cell reactivity of overlapping Der p I peptides in panel of patients ([2]; 33 positive experiments): significant regions of T cell reactivity | S.I. with which this patient responds [2]: at least 2.0 | response of Der f I primed T cells to Der p I peptides (cross-reactivity) [5]: respond significantly | T cell response to peptide [3]: positive response

CC(C)C[C@H](NC(=O)[C@H](Cc1ccc(O)cc1)NC(=O)[C@H](C)NC(=O)[C@H](CO)NC(=O)[C@H](CCC(=O)O)NC(=O)[C@@H](NC(=O)[C@H](C)NC(=O)[C@H](C)NC(=O)[C@@H](N)C(C)C)[C@@H](C)O)C(=O)N[C@@H](C)C(=O)N[C@@H](Cc1c[nH]cn1)C(=O)N[C@@H](CCCNC(=N)N)C(=O)N[C@@H](CC(N)=O)C(=O)N[C@@H](CCC(N)=O)C(=O)N[C@@H](CO)C(=O)N[C@@H](CC(C)C)C(=O)N[C@@H](CC(=O)O)C(=O)N[C@@H](CC(C)C)C(=O)N[C@@H](C)C(=O)N[C@@H](CCC(=O)O)C(=O)N[C@@H](CCC(N)=O)C(=O)O [DP I-4] (H-VAATESAYLAHRNQSLDLAEQ-OH; N-terminus and C-terminus assumed)
T cell reactivity of overlapping Der p I peptides in panel of patients ([2]; 33 positive experiments): significant regions of T cell reactivity | S.I. with which this patient responds [2]: at least 2.0 | response of Der f I primed T cells to Der p I peptides (cross-reactivity) [5]: respond significantly | T cell response to peptide [3]: positive responses
